Data reported in paper PMC12696101.

By UniProt entry, the sequences of proteins in these tests, tags left out. Residues count along the entry.
UniProt P43220, residues 24-463: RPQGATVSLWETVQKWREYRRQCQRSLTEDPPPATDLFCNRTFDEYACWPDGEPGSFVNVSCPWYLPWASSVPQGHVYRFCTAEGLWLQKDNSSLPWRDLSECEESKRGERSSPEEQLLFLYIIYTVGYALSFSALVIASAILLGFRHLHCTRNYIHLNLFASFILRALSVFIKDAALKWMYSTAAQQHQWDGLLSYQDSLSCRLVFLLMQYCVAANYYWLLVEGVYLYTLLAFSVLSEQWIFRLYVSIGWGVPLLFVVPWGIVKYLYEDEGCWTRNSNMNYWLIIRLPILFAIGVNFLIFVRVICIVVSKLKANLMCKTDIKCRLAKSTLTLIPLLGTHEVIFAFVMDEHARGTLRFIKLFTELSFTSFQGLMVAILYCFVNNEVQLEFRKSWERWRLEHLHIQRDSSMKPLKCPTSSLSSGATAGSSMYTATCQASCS
UniProt Q920R3: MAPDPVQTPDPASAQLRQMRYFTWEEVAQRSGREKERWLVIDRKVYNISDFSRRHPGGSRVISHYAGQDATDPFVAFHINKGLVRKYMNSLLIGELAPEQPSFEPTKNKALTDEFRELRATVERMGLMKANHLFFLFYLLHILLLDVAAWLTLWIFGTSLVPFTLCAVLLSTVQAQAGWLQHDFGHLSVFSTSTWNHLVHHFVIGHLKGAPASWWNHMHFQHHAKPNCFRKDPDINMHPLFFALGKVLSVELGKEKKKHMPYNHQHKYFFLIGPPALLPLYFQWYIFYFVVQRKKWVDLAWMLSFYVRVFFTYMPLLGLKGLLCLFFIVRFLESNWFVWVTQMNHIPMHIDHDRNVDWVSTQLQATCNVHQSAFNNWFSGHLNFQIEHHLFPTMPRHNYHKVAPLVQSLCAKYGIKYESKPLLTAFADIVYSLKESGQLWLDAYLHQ
UniProt O35547: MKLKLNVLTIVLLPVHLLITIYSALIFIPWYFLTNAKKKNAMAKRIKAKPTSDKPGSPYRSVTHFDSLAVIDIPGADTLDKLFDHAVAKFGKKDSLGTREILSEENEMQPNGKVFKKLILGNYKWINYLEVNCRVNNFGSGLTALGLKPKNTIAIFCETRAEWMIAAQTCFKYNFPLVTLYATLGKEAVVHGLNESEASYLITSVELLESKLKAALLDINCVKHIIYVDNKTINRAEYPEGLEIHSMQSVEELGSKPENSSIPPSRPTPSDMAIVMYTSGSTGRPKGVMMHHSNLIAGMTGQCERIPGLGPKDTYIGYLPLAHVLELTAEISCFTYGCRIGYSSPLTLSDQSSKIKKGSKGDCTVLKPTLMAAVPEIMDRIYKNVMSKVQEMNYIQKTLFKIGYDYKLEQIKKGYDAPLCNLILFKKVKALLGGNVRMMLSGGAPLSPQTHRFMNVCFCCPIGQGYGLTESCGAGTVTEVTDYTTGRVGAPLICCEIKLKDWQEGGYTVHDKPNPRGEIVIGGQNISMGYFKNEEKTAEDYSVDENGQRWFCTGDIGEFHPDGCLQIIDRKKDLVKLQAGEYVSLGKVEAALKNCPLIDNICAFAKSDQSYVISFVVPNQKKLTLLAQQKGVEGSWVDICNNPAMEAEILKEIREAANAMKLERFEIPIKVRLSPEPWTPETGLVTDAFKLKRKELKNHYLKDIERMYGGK
UniProt Q64428, residues 37-763: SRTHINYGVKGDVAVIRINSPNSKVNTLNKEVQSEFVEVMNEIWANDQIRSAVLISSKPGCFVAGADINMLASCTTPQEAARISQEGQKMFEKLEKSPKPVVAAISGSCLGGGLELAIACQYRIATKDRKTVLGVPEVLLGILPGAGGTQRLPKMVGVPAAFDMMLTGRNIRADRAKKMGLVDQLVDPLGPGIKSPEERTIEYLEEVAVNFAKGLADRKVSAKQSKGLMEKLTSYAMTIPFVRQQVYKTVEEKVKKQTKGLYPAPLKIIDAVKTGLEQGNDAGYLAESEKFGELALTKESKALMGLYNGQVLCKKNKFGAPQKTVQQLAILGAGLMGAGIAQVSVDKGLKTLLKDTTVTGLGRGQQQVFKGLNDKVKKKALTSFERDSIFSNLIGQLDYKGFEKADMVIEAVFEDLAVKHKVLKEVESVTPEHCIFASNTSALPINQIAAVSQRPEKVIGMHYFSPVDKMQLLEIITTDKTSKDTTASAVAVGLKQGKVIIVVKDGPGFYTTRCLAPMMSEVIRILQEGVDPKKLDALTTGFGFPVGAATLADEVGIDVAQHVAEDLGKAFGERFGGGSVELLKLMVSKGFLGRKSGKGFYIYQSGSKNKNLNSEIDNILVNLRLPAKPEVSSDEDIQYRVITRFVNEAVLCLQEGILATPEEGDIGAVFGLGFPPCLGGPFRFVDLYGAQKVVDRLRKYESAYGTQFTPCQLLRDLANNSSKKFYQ
UniProt Q5EB77: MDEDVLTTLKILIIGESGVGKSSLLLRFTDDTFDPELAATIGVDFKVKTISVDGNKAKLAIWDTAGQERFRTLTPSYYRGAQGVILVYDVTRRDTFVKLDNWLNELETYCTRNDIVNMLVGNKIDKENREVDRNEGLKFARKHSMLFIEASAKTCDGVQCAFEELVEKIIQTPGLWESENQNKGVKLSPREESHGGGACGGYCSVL
UniProt P81377: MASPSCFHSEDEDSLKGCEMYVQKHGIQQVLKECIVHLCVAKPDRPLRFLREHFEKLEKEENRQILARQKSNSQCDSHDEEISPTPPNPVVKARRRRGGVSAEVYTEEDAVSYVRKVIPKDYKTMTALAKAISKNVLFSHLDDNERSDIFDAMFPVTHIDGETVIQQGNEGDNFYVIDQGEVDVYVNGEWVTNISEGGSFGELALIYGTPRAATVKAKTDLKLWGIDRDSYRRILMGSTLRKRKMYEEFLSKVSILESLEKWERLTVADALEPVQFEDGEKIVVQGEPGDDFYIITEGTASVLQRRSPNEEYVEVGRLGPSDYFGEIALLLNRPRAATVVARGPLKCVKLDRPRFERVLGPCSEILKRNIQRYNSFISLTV
UniProt Q920L2, residues 35-656: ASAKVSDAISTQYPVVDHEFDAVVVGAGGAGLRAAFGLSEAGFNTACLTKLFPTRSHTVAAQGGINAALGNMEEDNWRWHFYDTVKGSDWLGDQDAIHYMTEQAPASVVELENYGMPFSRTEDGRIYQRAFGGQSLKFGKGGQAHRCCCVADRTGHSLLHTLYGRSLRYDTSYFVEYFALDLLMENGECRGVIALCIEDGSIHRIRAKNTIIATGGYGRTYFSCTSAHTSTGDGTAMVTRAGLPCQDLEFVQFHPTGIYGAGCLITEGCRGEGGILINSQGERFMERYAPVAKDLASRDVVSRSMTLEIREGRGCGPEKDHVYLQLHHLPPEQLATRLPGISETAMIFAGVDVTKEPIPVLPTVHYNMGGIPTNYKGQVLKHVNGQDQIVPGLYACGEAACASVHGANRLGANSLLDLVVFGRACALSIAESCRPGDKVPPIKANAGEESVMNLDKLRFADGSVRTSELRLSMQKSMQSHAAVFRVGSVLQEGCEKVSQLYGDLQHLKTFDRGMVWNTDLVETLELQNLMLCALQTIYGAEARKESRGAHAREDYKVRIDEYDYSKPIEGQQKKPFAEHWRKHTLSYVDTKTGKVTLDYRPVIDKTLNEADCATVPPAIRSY
UniProt Q9Z269: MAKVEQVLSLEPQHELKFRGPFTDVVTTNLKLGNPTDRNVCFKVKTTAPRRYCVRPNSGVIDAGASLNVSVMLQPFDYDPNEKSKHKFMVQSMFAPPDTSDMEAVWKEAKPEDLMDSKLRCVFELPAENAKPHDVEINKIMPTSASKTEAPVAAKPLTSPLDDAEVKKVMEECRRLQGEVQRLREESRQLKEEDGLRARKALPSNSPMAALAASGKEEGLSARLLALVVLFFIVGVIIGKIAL
UniProt P09456: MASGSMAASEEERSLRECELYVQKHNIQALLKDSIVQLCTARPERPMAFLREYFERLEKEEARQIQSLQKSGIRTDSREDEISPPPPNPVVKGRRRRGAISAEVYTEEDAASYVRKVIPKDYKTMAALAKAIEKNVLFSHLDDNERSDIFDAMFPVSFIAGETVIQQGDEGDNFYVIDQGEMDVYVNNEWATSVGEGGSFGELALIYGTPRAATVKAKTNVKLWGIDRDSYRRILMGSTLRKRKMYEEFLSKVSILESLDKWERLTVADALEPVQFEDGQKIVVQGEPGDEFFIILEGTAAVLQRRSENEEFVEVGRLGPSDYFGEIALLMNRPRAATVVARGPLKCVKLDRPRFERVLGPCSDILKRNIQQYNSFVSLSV

Target: SNAP/FLAG-tagged human GLP-1R (human) (UniProt P43220)
Test: affinity purification with mass spectrometry; anti-FLAG M2 agarose beads, overnight at 4 °C, on lysates (50 mM Tris-HCl pH 7.4, 150 mM NaCl, 1% Triton X-100, 1 mM EDTA) of INS-1 832/3 SNAP/FLAG-hGLP-1R cells treated with vehicle or 100 nM GLP-1RA (GLP-1, exendin-4, exendin-F1 or exendin-D3) for 5 minutes; LC-MS/MS, label-free quantification normalised to hGLP-1R

Molecule	binding
Fads1 (from UniProt Q920R3 1-447) (enzyme)	binds
Acsl4 (from UniProt O35547 1-711) (enzyme)	binds
HADHA (from UniProt Q64428 37-763) (enzyme)	binds
Copb1 (protein, UniProt P23514 1-953) MTAAENVCYTLINVPMDSEPPSEISLKNDLEKGDVKSKTEALKKVIIMILNGEKLPGLLMTIIRFVLPLQDHTIKKLLLVFWEIVPKTTPDGRLLHEMILVCDAYRKDLQHPNEFIRGSTLRFLCKLKEAELLEPLMPAIRACLEHRHSYVRRNAVLAIYTIYRNFENLIPDAPELIHDFLVNEKDASCKRNAFMMLIHADQDRALDYLSTCIDQVQTFGDILQLVIVELIYKVCHANPSERARFIRCIYNLLQSSSPAVKYEAAGTLVTLSSAPTAIKAAAQCYIDLIIKESDNNVKLIVLDRLVELKEHPAHERVLQDLVMDILRVLSTPDLEVRKKTLQLALDLVSSRNVEELVIVLKKEVIKTNNVSEHEDTDKYRQLLVRTLHSCSVRFPDMAANVIPVLMEFLSDSNEAAAADVLEFVREAIQRFDNLRMLIVEKMLEVFHAIKSVKIYRGALWILGEYCSTKEDIQSVMTEVRRSLGEIPIVESEIKKEAGELKPEEEITVGPVQKLVTEMGTYATQSALSSSRPTKKEEDRPPLRGFLLDGDFFVAASLATTLTKIALRYVALVQEKKKQNSFVAEAMLLMATILHLGKSSLPKKPITDDDVDRISLCLKVLSECSPLMNDIFNKECRQSLSQMLSAKLEEEKLSQKKESEKRNVTVQPDDPISFMQLTAKNEMNCKEDQFQLSLLAAMGNTQRKEAADPLASKLNKVTQLTGFSDPVYAEAYVHVNQYDIVLDVLVVNQTSDTLQNCTLELATLGDLKLVEKPSPLTLAPHDFANIKANVKVASTENGIIFGNIVYDVSGAASDRNCVVLSDIHIDIMDYIQPATCTDAEFRQMWAEFEWENKVTVNTNVTDLNDYLQHILKSTNMKCLTPEKALSGYCGFMAANLYARSIFGEDALANVSIEKPVHQGPDAAVTGHIRIRAKSQGMALSLGDKINLSQKKTSL	binds
Apgat4 (enzyme, UniProt Q924S1 1-378) MDLIGLLKSQFLCHLVFCYVFIASGLIVNAIQLCTLVIWPINKQLFRKINARLCYCVSSQLVMLLEWWSGTECTIYTDPKASPHYGKENAIVVLNHKFEIDFLCGWSLAERLGILGNSKVLAKKELAYVPIIGWMWYFVEMIFCTRKWEQDRQTVAKSLLHLRDYPEKYLFLIHCEGTRFTEKKHQISMQVAQAKGLPSLKHHLLPRTKGFAITVKCLRDVVPAVYDCTLNFRNNENPTLLGVLNGKKYHADCYVRRIPMEDIPEDEDKCSAWLHKLYQEKDAFQEEYYRTGVFPETPWVPPRRPWSLVNWLFWASLLLYPFFQFLVSMVSSGSSVTLASLVLIFCMASMGVRWMIGVTEIDKGSAYGNIDNKRKQTD	binds
Chp1 (protein, UniProt P61023 1-195) MGSRASTLLRDEELEEIKKETGFSHSQITRLYSRFTSLDKGENGTLSREDFQRIPELAINPLGDRIINAFFSEGEDQVNFRGFMRTLAHFRPIEDNEKSKDVNGPEPLNSRSNKLHFAFRLYDLDKDDKISRDELLQVLRMMVGVNISDEQLGSIADRTIQEADQDGDSAISFTEFVKVLEKVDVEQKMSIRFLH	binds
Cds2 (enzyme, UniProt Q91XU8 1-443) MTELRQRAVREDAPPEDKESESEAKLDGETASDSESRAETAPPPTSIDDTPEVLNRALSNLSSRWKNWWVRGILTMAMIAFFFIIIYLGPMVLMMIVMCVQIKCFHEIITIGYNVYHSYDLPWFRTLSWYFLLCVNYFFYGETVTDYFFTLVQREEPLRILSKYHRFISFTLYLTGFCMFVLSLVKKHYRLQFYMFGWTHVTLLIVVTQSHLVIHNLFEGMIWFIVPISCVICNDIMAYMFGFFFGRTPLIKLSPKKTWEGFIGGFFATVVFGLLLSYVMSGYRCFVCPVEYNNDTNSFTVDCEPSDLFRLQEYNIPGVIQSLVGWKTMRMYPFQIHSALSTFASLIGPFGGFFASGFKRAFKIKDFANTIPGHGGIMDRFDCQYLMATFVNVYIASFIRGPNPSKLIQQFLTLRPDQQLHIFNTLKSHLTDKGILMSALEEE	binds
Bdh1 (enzyme, UniProt P29147 47-343) TSQADAASGKAVLVTGCDSGFGFSLAKHLHSKGFLVFAGCLLKDKGDAGVRELDSLKSDRLRTIQLNVCNSEEVEKAVETVRSGLKDPEKGMWGLVNNAGISTFGEVEFTSMETYKEVAEVNLWGTVRTTKSFLPLLRRAKGRVVNISSMLGRMANPARSPYCITKFGVEAFSDCLRYEMHPLGVKVSVVEPGNFIAATSLYSPERIQAIAKKMWDELPEVVRKDYGKKYFDEKIAKMETYCNSGSTDTSSVINAVTHALTAATPYTRYHPMDYYWWLRMQVMTHFPGAISDKIYIH	binds

Other lines, results leading:

binding	Molecule
binds	Rab18 (from UniProt Q5EB77 1-206)
binds	PKA-RIβ (from UniProt P81377 1-381)
binds	SDHA (from UniProt Q920L2 35-656) (enzyme)
binds	endogenous VAPB (INS-1 832/3 cells) (from UniProt Q9Z269 1-243)
binds	PKA-RIα (from UniProt P09456 1-381)
binds	HADHB (enzyme, UniProt Q60587 35-475) SAPAVQTKSKKTLAKPNLKNIVVVEGVRIPFLLSGTSYKDLMPHDLARAALSGLLYRTNIPKDVVDYIIFGTVIQEVKTSNVAREAALGAGFSDKTPAHTVTMACISSNQAMTTAVGLIASGQCDVVVAGGVELMSDVPIRHSRNMRKMMLDLNKAKTLAQRLSLLTKFRLNFLSPELPAVAEFSTNETMGHSADRLAAAFAVSRMEQDKYALRSHSLAKKAQDEGHLSDIVPFKVPGKDTVSKDNGIRPSSLEQMAKLKPAFIKPYGTVTAANSSFLTDGASAMLIMSEDRALAMGYKPKAYLRDFIYVSQDPKDQLLLGPTYATPKVLEKAGLTMNDIDAFEFHEAFSGQILANFKAMDSDWFAQNYMGRKTKVGAPPLEKFNIWGGSLSLGHPFGATGCRLVMAAANRLRKDGGQYALVAACAAGGQGHAMIVEAYPK
binds	TAMM41 (enzyme, UniProt D3ZKT0 1-337) MALQALHSSGVGLRRILAHFPEDLSLAFAYGSAVYRQAGPSAHQENPMLDLVFTVDDPVAWHAMNLKKNWSHYSLLKLLGPRIISSVQNNYGAGVYFNPLIMCDGKLIKYGVISTGTLIEDLLNWNNLYIAGRLQKPVKIVSMNESTVLRAALDKNLKSAVTTACLMLPESFSEEDLFIEIAGLSYSGDFRMVIGEEKAKVLNIVKPNVVHFRELYESILQKDPQMVYKMHQGQLEIDKSPEGQFTQLMTLPRTLQQHINHIMDPPGRNRDVEETLLQVAQDPDCGDVVRLAVSSIVRPSSIRQSTKGLFTAGVKKSVIYSSRKLNKMWKGWVRKTS
binds	VAPA (protein, UniProt Q9Z270 1-249) MASASGAMAKHEQILVLDPPSDLKFKGPFTDVVTTNLKLQNPSDRKVCFKVKTTAPRRYCVRPNSGVIDPGSIVTVSVMLQPFDYDPNEKSKHKFMVQTIFAPPNISDMEAVWKEAKPDELMDSKLRCVFEMPNENDKLNDMEPSKAVPLNASKQDGPLPKPHSVSLNDTETRKLMEECKRLQGEMMKLSEENRHLRDEGLRLRKVAHSDKPGSTSAVSFRDNVTSPLPSLLVVIAAIFIGFFLGKFIL
binds	Mest (protein, UniProt Q6P5P5 1-335) MVRRDRLRRMREWWVQVGLLAVPLLAAYLHIPPPQLSPALHSWKTSGKFFTYKGLRIFYQDSVGVVGSPEIVVLLHGFPTSSYDWYKIWEGLTLRFHRVIALDFLGFGFSDKPRPHQYSIFEQASIVESLLRHLGLQNRRINLLSHDYGDIVAQELLYRYKQNRSGRLTIKSLCLSNGGIFPETHRPLLLQKLLKDGGVLSPILTRLMNFFVFSRGLTPVFGPYTRPTESELWDMWAGIRNNDGNLVIDSLLQYINQRKKFRRRWVGALASVTIPIHFIYGPLDPINPYPEFLELYRKTLPRSTVSILDDHISHYPQLEDPMGFLNAYMGFINSF
binds	voltage-dependent anion-selective channel protein 2 (VDAC2) (protein, UniProt P81155 1-295) MAECCVPVCQRPICIPPPYADLGKAARDIFNKGFGFGLVKLDVKTKSCSGVEFSTSGSSNTDTGKVSGTLETKYKWCEYGLTFTEKWNTDNTLGTEIAIEDQICQGLKLTFDTTFSPNTGKKSGKIKSAYKRECINLGCDVDFDFAGPAIHGSAVFGYEGWLAGYQMTFDSAKSKLTRSNFAVGYRTGDFQLHTNVNNGTEFGGSIYQKVCEDFDTSVNLAWTSGTNCTRFGIAAKYQLDPTASISAKVNNSSLIGVGYTQTLRPGVKLTLSALVDGKSFNAGGHKLGLALELEA
binds	TMEM120A (protein, UniProt Q5HZE2 1-343) MQSPPPDPLGDCLRNWEDLQQDFQGIQETHRLYRVKLEELTKLQDNCTNSITRQKKRLQELALVLKKCRPSLPSESLEAAQELESQIKERQGLFFDMEAYLPKKNGLYLSLVLGNVNVTLLSKQAKFAYKDEYEKFKLYLTIILIVISFTCRFLLNSRVTDAAFNFLLVWYYCTLTIRESILINNGSRIKGWWVFHHYVSTFLSGVMLTWPDGLMYQKFRNQFLSFSMYQSFVQFLQYYYQSGCLYRLRALGERHTMDLTVEGFQSWMWRGLTFLLPFLFFGHFWQLFNALTLFNLARDPECKEWQVLMCGLPFLLLFLGNFFTTLRVVHQKFHSQQHGSKKD

These are yes or no findings as the source states them, for the method shown. In cells and extracts the contact can be indirect. A yes stands for co-enrichment or nearness to the bait. Other partners may have been found. Sequences can lack the tags named with a protein.
